No constants are given. Whether binding was seen depends on the method and setting. In cells and extracts the contact can be indirect. Some results given as binding are weak or reduced against the parent protein; the word gives no strength. Blank lines part the entries; values can stand above or below the binder they belong to.
Target: N-terminally GST-tagged human γ-tubulin (human) (UniProt P23258)
Experiment: pull-down; GST-tagged human γ-tubulin or GST alone with whole-cell extracts; immunoblot; only the target purified

Protein sequences, listed by entry. Tags and fused reporters are not part of them.
UniProt P23258: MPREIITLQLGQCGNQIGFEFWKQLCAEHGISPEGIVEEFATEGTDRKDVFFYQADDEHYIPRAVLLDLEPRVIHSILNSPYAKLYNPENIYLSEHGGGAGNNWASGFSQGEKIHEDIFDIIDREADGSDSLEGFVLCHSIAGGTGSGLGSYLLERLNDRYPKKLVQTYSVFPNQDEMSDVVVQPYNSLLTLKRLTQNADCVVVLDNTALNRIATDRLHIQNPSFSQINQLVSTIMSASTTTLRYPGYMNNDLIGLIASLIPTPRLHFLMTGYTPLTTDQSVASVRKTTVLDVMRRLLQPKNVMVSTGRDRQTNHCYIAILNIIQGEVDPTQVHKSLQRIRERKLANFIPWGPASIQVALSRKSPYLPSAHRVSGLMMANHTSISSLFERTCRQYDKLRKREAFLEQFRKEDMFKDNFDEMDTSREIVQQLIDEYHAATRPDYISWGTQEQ

binding: binds
B1: G protein-coupled receptor kinase-interacting protein 2 (GIT2), GIT2-long, endogenous (protein, UniProt Q9JLQ2 1-708)
chain: MSKRLRSSDVCADCNGPDPSWASVNRGTFICDECCSVHRSLGRHISQVRHLKHTAWPPTLLQMVETLYNNGANSIWEHSLLDPASIMSGRRKANPQDKVHPNKAEFIRAKYQMLAFVHRLPCREDDSVTAKDLSKQLHSSVRTGNLETCLRLLSLGAQANFFHPEKGSTPLHVASKAGQILQAELLAVYGADPGTQDSSGKTPVDYARQGGHHELAERLIEIQYELTDRLAFYLCGRKPDHKSGQHFLIPQRADSLDLSELAKAAKKKLQSLSNHLFEELAMDVYDEVDRRETDAVWLATQNHSTLVTETTVVPFLPVNPEYSSTRNQGRQKLARFNAHEFATLVIDILSDAKRRQQGSPLSRSKDNVELILRTVSTQHSTESQDNDQPDYDSVASDEDTDVETRASKANRQKLQTLQSENSSLRRQATASACQVQTGSDHKDTASHSSLKRRPSARGSRPMSMYETGSGQKPYLPMGEASHPEESRTRLQPFPTHIGRSALVTSSSSLPSFPSTLSWSRDESARRASRLEKQNSTPESDYDNTACDPEPDDTGSTRKGRQRSMLWQGDGLLPDTAEPHSVPSPTLPSTEDVIRKTEQITKNIQELLRAAQENKHDSYIPCSERIHVAVTEMAALFPKKPKSDTVRTSLRLLTSSAYRLQSECRKALPGDSSLPTDVQLVTQQVIQCAYDIAKAAKQLVTITTKENSS

binding: binds
B2: β-PIX (p21-activated kinase interacting exchange factor), endogenous (protein, UniProt Q9ES28 1-862)
chain: MNSAEQTVTWLITLGVLESPKKTISDPEVFLQASLKDGVVLCRLLERLLPGTIEKVYPEPRNESECLSNIREFLRACGASLRLETFDANDLYQGQNFNKVLSSLVTLNKVTADIGLGSDSVCARPSSHRIKSFDSLGSQSSHSRTSKLLQSQYRSLDMTDNTNSQLVVRAKFNFQQTNEDELSFSKGDVIHVTRVEEGGWWEGTHNGRTGWFPSNYVREIKPSEKPVSPKSGTLKSPPKGFDTTAINKSYYNVVLQNILETEHEYSKELQSVLSTYLRPLQTSDKLSSANTSYLMGNLEEISSFQQVLVQSLEECTKSPEAQQRVGGCFLSLMPQMRTLYLAYCANHPSAVSVLTEHSEDLGEFMETKGASSPGILVLTTGLSKPFMRLDKYPTLLKELERHMEDYHPDRQDIQKSMTAFKNLSAQCQEVRKRKELELQILTEPIRSWEGDDIKTLGSVTYMSQVTIQCAGSEEKNERYLLLFPNLLLMLSASPRMSGFIYQGKLPTTGMTITKLEDSENHRNAFEISGSMIERILVSCTSQQDLHEWVEHLQKQTKVTSVSNPTIKPHSVPSHTLPSHPLTPSSKHADSKPVALTPAYHTLPHPSHHGTPHTTISWGPLEPPKTPKPWSLSCLRPAPPLRPSAALCYKEDLSKSPKTMKKLLPKRKPERKPSDEEFAVRKSTAALEEDAQILKVIEAYCTSAKTRQTLNSTWQGTDLMHNHVLADDDQSSLDSLGRRSSLSRLEPSDLSEDSEYDSIWTAHSYRMGSASRSRKESAPQVLLPEEEKIIVEETKSNGQTVIEEKSLVDTVYALKDEVQELRQDNKKMKKSLEEEQRARKDLEKLVRKVLKNMNDPAWDETNL
